Data on four sequences can be found in patent US20040143098.

Chains of the proteins cited; added tags and fusions are not shown. A line that says so, or that is headed by a name, gives the form on record, which may keep a tag or linker.
DBF1 partial (lacking AP2 DNA binding domain) (Zea mays), one chain, as listed by the source: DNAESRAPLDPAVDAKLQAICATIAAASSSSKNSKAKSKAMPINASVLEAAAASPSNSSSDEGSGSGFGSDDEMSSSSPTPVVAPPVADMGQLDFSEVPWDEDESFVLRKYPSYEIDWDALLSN
DBF1 (Zea mays), one chain, as listed by the source: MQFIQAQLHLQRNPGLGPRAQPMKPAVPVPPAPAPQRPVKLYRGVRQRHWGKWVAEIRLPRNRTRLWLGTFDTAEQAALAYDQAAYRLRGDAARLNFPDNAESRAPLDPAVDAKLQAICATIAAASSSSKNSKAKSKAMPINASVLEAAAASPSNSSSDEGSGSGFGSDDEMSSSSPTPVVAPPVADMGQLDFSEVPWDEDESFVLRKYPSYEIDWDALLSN

For part of these data: Where cells or extracts were used, other partners may take part. For part of these data: The exact form of at least one protein or probe is not confirmed. For part of these data: No signal at the amounts used counts as a negative.

One data set deals with DBF1 (Zea mays). The experiment in a line: EMSA. Conditions: purified recombinant protein, protein details: pET28 tag (about 31 aa), expressed in E. coli, label: 32P.
For data set [1], the system named is DBF1 partial (lacking AP2 DNA binding domain) (Zea mays). The data set can be described thus: EMSA. Conditions: same buffer, DNA binding domain deleted, purified recombinant protein, label: 32P.
The test system of data set [2] is DBF1 (one-hybrid cDNA fusion) (Zea mays). The experiment in a line: one hybrid. Conditions: yeast YM4271, HIS3 (40 mM 3-AT) and lacZ reporters; protein in cells; protein details: HybriZap activation domain fusion.

As for “GGGGTCGAGAAGAACCGACGTGGCGGTCGAG / GGGGCTCGACCGCCACGTCTCGGTTCTTCTCGA [DRE1/ABRE1]”, the binding result with DBF1 (Zea mays) (same buffer) is listed as “no binding”.
Consider “GGGGTCGACCGGGCCACCGACGCACCGGCTCGAG / GGGGCTCGAGCCGTGCGTCGGTGGCCCGGTCGA [DRE2]”, for which the binding result in data set [1] is on record as “no binding”; with DBF1 (Zea mays) (25 mM HEPES pH 7.8, 75 mM KCl, 5 mM MgCl2, poly(dI-dC), on ice, confirmed by competition), “binds”.
With “GGGGTCGACCGGGCCAGAATTCCACCGGCTCGAG / GGGGCTCGAGCCGTGGAATTCTGGCCCGGTCGA [DRE2m]”, the binding result is “no binding” in data set [1] (variant of DRE2) and “no binding” in the data set with DBF1 (Zea mays) (same buffer, variant of DRE2).
As to “AATTCCCGGGCCACCGACGCACGGCCGCACCGACGCACGGCCGGGCCACCGACGCACGG (double strand) [3xDRE2]”, the binding result in data set [2] is on record as “binds”.
